These are yes or no findings as the source states them, for the method shown. In cells and extracts the contact can be indirect. Some binding calls cover weakened binding; strength is not graded here. Where a sequence is shown, tags or fusion partners need not be part of it.
Molecular target: T1, Myc-tagged STAP-1 (signal-transducing adapter protein-1) (UniProt Q9ULZ2)
T1 sequence: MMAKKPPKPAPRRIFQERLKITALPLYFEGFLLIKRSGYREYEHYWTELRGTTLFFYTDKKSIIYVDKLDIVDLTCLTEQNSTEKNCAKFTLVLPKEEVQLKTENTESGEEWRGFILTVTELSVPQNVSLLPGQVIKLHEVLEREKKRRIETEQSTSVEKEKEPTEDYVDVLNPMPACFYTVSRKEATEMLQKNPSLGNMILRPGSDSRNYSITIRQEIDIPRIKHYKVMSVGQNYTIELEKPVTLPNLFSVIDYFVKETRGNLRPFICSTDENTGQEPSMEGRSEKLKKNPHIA
Assay: co-IP; 293T cells co-expressing Myc-tagged STAP-1 and the partner; lysis in 50 mM Tris-HCl pH 7.6, 0.15 M NaCl, 1% Nonidet P-40; immunoprecipitated with anti-Myc antibody, blotted for the partner

Chains of the proteins cited; added tags and fusions are not shown.
UniProt P42229: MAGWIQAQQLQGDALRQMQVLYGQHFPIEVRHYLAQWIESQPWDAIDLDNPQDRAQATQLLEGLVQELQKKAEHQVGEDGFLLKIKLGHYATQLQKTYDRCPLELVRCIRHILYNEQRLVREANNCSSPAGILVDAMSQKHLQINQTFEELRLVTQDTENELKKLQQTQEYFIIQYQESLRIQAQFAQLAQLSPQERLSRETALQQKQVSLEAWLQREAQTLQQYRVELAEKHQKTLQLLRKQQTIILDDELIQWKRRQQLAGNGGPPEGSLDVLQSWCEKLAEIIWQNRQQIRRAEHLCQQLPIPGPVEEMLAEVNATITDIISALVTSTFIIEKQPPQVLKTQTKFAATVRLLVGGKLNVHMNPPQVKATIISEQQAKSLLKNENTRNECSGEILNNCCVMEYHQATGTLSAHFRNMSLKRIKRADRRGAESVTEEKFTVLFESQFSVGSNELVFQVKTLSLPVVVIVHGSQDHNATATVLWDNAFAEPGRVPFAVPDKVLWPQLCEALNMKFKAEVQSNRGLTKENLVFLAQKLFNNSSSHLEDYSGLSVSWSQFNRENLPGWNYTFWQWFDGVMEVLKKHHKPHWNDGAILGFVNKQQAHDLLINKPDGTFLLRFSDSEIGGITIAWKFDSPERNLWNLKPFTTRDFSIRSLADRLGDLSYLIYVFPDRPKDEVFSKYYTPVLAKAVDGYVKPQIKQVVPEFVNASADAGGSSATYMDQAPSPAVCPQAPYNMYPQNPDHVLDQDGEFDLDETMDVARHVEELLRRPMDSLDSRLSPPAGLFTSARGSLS
UniProt P51692: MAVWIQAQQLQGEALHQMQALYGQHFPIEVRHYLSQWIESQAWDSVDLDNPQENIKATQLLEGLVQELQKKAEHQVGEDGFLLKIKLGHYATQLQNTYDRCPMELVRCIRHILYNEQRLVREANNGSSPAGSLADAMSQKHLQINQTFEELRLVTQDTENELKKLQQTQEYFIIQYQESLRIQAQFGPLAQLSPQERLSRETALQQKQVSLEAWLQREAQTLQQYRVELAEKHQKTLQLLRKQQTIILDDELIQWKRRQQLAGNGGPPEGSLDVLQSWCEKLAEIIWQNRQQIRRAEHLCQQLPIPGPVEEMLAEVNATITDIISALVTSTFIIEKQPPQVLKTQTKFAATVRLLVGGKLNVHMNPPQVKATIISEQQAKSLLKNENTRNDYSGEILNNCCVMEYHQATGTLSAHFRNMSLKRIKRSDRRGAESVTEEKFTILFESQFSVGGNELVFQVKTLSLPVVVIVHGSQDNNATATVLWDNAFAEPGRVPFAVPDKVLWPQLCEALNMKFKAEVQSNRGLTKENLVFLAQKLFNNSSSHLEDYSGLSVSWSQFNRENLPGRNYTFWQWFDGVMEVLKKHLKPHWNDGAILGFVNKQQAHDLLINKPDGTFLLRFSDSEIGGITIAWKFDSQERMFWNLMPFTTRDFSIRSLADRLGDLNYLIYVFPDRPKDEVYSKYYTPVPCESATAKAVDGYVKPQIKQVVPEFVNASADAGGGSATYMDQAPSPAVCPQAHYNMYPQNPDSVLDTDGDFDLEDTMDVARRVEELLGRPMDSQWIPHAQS

Row | binding | Substance
1 | binds | STAT5a (from UniProt P42229 1-794)
2 | binds | STAT5b (from UniProt P51692 1-787)

— PMC7441008
